Results taken from article PMC7335050, “Characterization of an alternative BAK-binding site for BH3 peptides” (Nature Communications, 2020).
Residues, ends and D or L forms follow the SMILES beside them.

System: BAK 15–186
Assay: NMR chemical shift perturbation assay
Type: binding, human
Settings: 0.5 mM 15N-labeled BAK 15–186 titrated with unlabeled peptide, HSQC at 303 K

Compound	Average CSPs value
CC[C@H](C)[C@H](NC(=O)[C@H](CCC(=O)O)NC(=O)[C@H](CCCNC(=N)N)NC(=O)[C@H](C)NC(=O)[C@H](Cc1c[nH]c2ccccc12)NC(=O)[C@@H](N)CCC(N)=O)C(=O)NCC(=O)N[C@@H](C)C(=O)N[C@@H](CCC(N)=O)C(=O)N[C@@H](CC(C)C)C(=O)N[C@@H](CCCNC(=N)N)C(=O)N[C@@H](CCCNC(=N)N)C(=O)N[C@@H](CCSC)C(=O)N[C@@H](C)C(=O)N[C@@H](CC(=O)O)C(=O)N[C@@H](CC(=O)O)C(=O)N[C@@H](CC(C)C)C(=O)N[C@@H](CC(N)=O)C(=O)N[C@@H](C)C(=O)N[C@@H](CCC(N)=O)C(=O)N[C@@H](Cc1ccc(O)cc1)C(=O)N[C@@H](CCC(=O)O)C(=O)N[C@@H](CCCNC(=N)N)C(=O)N[C@@H](CCCNC(=N)N)C(=O)N[C@@H](CCCNC(=N)N)C(=O)N[C@@H](CCC(N)=O)C(=O)O [PUMA BH3, reference compound]	0.01
CC[C@H](C)[C@H](NC(=O)[C@H](CS)NC(=O)[C@H](CCC(N)=O)NC(=O)[C@H](CC(C)C)NC(=O)[C@H](CCCCN)NC(=O)[C@H](CCCNC(=N)N)NC(=O)[C@H](C)NC(=O)[C@@H](NC(=O)[C@H](CCC(N)=O)NC(=O)[C@@H](NC(=O)[C@H](CCC(=O)O)NC(=O)[C@H](C)NC(=O)[C@@H](N)CCC(N)=O)C(C)C)[C@@H](C)CC)C(=O)N[C@@H](C)C(=O)N[C@@H](CC(=O)O)C(=O)N[C@@H](CCC(N)=O)C(=O)N[C@@H](Cc1ccccc1)C(=O)N[C@@H](Cc1c[nH]cn1)C(=O)N[C@@H](CCCNC(=N)N)C(=O)N[C@@H](CC(C)C)C(=O)N[C@@H](Cc1c[nH]cn1)C(=O)N[C@H](C(=O)N[C@@H](CCC(N)=O)C(=O)N[C@@H](CCC(N)=O)C(=O)N[C@@H](Cc1c[nH]cn1)C(=O)N[C@@H](CCC(N)=O)C(=O)O)C(C)C [BMF BH3] (H-QAEVQIARKLQCIADQFHRLHVQQHQ-OH; N-terminus and C-terminus assumed)	0.02
